US20220390459A1, “RAPID, HIGH-INTENSITY CHEMILUMINESCENT DIOXETANES” (Beckman Coulter, Inc., priority 2019, published 2022)
Some of these results come from one statement about several compounds together.

Tested on: alkaline phosphatase
Test: Chemiluminescence intensity over time after combining the phosphate dioxetane with alkaline phosphatase solution
Type: biochemical
Conditions: AP8, TBE enhancer in 221 buffer, 37° C.; concentrations differ per example

Structure (SMILES)	intensity and speed of luminescence compared with other examples (in words)
COC1(c2ccc(-c3ccsc3)c(OP(=O)([O-])[O-])c2)OOC12C1CC3CC(C1)CC2C3.[Na+].[Na+] (stereo not drawn) [Example 15]	vastly improved speed and intensity of luminescence compared to the commercially-available dioxetanes
C=Cc1ccc(C2(OC)OOC23C2CC4CC(C2)CC3C4)cc1OP(=O)([O-])[O-].[Na+].[Na+] (stereo not drawn) [Example 16]	vastly improved speed and intensity of luminescence compared to the commercially-available dioxetanes
COC1(c2ccc(-c3cccs3)c(OP(=O)([O-])[O-])c2)OOC12C1CC3CC(C1)CC2C3.[Na+].[Na+] (stereo not drawn) [Example 14]	vastly improved speed and intensity of luminescence compared to the commercially-available dioxetanes
